These are literature values, as cited in patent US9382205B2, “Processes for the manufacture of a pharmaceutically active agent” (H. Lundbeck A/S, priority 2009, dated 2016).

For orientation: Ki means a measure of affinity in units of concentration, obtained from inhibition or displacement.

The target in the series is human 5-HT6 receptor. Conditions: from Roth et al. 1994.

Regarding `OCCOCCN1CCN(C2=Nc3ccccc3Sc3ccccc32)CC1` [quetiapine], the Ki is 33 nM.
